Experimental data taken from publication PMC7097882.
No constants are given. Whether binding was seen depends on the method and setting. Binding seen in cells or lysates may run through a third protein. A yes stands for co-enrichment or nearness to the bait. Other partners may have been found. Sequences can lack the tags named with a protein.

Amino acid sequences for entries named in this document (tags omitted).
UniProt Q62504: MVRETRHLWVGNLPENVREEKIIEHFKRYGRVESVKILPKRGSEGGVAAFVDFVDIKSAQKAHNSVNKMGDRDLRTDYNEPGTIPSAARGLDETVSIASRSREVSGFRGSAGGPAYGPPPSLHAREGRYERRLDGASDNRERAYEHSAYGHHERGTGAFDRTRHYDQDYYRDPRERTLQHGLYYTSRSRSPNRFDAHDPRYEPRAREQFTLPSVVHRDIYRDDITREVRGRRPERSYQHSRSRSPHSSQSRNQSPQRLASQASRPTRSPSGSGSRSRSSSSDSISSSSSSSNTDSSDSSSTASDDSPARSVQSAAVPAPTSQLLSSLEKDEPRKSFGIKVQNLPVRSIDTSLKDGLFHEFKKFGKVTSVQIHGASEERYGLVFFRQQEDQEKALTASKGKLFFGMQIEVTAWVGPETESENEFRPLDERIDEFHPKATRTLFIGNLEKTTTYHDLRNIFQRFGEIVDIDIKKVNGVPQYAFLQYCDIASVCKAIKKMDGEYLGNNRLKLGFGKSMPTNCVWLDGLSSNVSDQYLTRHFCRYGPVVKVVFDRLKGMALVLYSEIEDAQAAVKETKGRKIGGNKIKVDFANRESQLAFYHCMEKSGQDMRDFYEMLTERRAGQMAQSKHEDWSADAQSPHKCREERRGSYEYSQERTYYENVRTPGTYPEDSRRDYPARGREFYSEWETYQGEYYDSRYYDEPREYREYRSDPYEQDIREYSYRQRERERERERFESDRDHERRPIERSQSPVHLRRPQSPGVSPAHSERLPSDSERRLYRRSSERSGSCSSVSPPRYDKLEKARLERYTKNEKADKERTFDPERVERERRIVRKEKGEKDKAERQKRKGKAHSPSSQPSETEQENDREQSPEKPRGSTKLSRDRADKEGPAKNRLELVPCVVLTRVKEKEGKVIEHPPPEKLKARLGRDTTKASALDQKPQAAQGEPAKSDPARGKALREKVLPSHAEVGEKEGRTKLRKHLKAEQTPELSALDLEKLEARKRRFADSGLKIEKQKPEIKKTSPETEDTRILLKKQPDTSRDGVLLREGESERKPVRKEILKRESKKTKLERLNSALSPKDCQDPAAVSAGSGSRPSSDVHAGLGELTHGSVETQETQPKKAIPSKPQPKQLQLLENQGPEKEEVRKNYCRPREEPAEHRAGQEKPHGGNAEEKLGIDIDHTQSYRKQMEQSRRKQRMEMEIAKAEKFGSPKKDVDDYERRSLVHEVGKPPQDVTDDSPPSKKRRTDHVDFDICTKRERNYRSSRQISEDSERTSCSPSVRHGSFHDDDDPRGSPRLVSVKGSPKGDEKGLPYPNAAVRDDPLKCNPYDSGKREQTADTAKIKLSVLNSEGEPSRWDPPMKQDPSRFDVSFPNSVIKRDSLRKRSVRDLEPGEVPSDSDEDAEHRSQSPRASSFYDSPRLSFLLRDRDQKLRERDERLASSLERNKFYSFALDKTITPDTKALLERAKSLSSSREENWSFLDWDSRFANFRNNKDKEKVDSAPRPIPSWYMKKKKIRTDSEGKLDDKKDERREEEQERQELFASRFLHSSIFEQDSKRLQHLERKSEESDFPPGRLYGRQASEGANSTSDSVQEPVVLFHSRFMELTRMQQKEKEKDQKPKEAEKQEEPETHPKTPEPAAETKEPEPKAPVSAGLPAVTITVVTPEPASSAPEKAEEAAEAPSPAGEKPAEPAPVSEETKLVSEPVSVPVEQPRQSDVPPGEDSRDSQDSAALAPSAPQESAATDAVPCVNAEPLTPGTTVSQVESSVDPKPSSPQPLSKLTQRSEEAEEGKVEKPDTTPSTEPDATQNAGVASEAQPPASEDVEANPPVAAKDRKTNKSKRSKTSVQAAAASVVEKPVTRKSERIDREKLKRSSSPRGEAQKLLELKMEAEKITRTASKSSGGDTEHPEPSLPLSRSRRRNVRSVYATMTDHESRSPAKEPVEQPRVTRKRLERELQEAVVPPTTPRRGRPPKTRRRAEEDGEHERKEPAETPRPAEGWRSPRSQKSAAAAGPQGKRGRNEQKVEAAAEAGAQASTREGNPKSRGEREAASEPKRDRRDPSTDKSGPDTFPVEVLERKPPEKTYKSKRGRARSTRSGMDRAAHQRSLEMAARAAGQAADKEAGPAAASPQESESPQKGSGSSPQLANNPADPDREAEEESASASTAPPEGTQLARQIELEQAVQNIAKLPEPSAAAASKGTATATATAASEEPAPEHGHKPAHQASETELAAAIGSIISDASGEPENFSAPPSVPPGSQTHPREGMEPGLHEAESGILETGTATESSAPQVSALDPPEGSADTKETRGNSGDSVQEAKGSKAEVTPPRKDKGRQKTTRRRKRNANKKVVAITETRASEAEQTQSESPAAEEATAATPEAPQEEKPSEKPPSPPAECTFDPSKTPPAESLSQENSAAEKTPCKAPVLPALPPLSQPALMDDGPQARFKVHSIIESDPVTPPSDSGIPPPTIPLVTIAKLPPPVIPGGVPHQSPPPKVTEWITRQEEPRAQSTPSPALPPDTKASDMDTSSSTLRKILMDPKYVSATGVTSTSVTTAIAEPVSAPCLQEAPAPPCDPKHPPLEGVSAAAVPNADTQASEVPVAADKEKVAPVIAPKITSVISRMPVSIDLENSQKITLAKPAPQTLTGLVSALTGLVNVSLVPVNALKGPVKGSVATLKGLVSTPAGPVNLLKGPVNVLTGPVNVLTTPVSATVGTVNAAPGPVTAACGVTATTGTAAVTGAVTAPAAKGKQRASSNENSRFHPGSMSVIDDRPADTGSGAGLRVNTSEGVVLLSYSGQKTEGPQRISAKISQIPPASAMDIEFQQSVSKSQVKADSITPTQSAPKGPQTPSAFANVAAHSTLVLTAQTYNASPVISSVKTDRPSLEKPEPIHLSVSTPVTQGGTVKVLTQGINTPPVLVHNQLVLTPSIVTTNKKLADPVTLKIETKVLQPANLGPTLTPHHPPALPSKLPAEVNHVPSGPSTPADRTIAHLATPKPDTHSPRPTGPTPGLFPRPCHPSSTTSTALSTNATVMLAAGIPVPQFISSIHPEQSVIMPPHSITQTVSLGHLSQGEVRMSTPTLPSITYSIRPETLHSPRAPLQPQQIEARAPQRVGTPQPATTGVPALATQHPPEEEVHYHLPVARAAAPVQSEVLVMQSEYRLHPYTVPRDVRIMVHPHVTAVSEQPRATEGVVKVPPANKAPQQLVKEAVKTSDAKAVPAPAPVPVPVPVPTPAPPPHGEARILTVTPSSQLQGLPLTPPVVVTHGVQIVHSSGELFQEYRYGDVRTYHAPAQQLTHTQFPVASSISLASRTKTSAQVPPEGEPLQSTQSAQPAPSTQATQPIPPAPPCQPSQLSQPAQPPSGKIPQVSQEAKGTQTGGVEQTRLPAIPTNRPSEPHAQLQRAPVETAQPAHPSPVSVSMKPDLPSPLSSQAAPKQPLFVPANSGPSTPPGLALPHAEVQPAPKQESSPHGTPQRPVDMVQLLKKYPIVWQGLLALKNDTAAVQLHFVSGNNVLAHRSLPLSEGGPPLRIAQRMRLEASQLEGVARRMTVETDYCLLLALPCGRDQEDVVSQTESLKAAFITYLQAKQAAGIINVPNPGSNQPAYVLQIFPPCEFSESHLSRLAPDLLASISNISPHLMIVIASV
UniProt E9Q784: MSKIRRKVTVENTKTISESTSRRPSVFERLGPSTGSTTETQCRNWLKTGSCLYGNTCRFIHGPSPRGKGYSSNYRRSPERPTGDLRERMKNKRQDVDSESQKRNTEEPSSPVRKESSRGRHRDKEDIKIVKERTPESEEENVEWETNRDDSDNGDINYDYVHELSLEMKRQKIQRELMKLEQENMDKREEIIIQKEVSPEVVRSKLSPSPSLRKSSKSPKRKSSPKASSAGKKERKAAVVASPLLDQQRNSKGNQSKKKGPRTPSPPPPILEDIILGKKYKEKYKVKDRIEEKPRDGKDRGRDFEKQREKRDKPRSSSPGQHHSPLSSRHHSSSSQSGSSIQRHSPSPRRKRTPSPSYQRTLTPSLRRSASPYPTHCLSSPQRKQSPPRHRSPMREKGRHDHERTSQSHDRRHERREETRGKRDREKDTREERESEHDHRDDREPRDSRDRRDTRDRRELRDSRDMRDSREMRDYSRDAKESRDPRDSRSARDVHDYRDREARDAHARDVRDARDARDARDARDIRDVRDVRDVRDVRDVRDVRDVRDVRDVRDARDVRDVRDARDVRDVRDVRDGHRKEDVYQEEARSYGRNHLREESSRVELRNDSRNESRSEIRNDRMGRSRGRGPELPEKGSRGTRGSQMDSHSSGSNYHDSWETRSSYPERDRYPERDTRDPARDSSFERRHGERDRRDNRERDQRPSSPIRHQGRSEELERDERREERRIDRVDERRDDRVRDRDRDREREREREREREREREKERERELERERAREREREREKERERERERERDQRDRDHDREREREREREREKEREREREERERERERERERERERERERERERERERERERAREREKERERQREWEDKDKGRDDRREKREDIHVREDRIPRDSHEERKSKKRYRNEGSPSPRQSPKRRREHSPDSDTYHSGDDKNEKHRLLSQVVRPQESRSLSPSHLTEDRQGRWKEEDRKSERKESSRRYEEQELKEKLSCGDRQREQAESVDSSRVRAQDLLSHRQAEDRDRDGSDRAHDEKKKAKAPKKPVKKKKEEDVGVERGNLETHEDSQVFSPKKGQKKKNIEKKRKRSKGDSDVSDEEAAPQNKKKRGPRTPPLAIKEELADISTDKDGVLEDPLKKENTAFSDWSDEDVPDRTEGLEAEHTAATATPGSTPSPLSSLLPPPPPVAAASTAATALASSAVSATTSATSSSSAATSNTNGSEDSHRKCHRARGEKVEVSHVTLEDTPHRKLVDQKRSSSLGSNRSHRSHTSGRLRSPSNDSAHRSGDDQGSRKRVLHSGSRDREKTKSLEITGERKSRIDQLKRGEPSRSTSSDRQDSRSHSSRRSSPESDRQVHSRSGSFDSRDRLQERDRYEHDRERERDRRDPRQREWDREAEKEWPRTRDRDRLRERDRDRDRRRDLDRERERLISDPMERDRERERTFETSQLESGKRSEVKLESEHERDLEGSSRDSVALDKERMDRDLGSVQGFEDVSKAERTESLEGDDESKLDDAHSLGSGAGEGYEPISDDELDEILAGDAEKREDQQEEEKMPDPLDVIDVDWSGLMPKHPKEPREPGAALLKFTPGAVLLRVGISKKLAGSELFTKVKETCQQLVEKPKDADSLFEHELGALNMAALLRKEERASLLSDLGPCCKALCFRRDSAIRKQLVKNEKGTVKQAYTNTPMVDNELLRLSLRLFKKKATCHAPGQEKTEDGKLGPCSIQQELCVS
UniProt Q8BFQ4: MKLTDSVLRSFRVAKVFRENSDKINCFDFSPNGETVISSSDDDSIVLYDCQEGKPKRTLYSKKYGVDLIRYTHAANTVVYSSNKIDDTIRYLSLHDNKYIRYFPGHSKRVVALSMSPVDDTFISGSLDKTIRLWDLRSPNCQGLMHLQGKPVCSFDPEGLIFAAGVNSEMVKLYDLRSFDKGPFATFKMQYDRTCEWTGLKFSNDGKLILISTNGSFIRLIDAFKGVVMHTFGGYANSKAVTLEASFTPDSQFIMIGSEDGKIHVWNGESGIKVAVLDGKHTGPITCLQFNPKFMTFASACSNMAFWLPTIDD

T1: emGFP-PreScission-RBM15 (UniProt Q0VBL3)
T1 sequence: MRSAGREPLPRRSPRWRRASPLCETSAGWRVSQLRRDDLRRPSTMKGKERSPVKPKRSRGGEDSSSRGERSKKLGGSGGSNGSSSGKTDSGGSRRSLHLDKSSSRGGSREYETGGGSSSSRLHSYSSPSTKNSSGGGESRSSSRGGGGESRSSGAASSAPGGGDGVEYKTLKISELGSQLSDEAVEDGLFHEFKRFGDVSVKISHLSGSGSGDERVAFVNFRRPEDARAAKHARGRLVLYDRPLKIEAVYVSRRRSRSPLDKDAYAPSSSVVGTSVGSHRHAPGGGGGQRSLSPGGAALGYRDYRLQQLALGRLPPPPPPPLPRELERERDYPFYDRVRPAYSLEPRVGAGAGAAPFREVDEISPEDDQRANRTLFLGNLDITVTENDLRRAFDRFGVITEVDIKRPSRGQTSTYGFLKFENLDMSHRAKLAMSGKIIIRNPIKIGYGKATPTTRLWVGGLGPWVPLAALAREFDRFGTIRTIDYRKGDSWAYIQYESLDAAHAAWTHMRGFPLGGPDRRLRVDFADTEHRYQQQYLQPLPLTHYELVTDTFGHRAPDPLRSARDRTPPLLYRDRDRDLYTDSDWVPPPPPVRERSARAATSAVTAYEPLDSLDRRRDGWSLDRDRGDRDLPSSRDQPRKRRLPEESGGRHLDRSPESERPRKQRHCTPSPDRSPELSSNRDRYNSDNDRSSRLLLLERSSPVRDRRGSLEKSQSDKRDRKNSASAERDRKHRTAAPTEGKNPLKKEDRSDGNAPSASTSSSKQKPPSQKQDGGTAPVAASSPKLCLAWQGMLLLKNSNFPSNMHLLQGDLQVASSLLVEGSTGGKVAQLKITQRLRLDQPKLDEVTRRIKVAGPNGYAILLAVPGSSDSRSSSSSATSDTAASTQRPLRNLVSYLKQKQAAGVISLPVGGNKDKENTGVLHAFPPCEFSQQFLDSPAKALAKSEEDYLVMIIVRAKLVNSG

B1: WTAP (protein, UniProt Q9ER69 1-396)
chain: MTNEEPLPKKVRLSETDFKVMARDELILRWKQYEAYVQALEGKYTDLNSNDVTGLRESEEKLKQQQQESARRENILVMRLATKEQEMQECTTQIQYLKQVQQPSVAQLRSTMVDPAINLFFLKMKGELEQTKDKLEQAQNELSAWKFTPDSQTGKKLMAKCRMLIQENQELGRQLSQGRIAQLEAELALQKKYSEELKSSQDELNDFIIQLDEEVEGMQSTILVLQQQLKETRQQLAQYQQQQSQASAPSTSRTTSSEPVDQAEVTSKDCSRLANGPSNGSSSRQRTSGSGFHREGSTPEDDFPSSSGNGNKASNSSEERTGRGGSSYINPLSAGYESVDSPTGSENSLTHHSNDTDSSHDPQEEKAVSGKGNRTVGSRHVQNGLDSSVNVQGAVL
B2: CBLL1 (protein, UniProt Q9JIY2 1-491)
chain: MDHTDNELQGTNSSGSLGGLDVRRRIPIKLISKQASKVKPAPRTQRTVSRMPAKAPQGDEEGFDYNEEQRYDCKGGELFGNQRRFPGHLFWDFKINILGEKDDTPVHFCDKCGLPIKVYGRMIPCKHVFCYDCAILHEKKGDKMCPGCSDPVQRIEQCTRGSLFMCSIVQGCKRTYLSQRDLQAHINHRHMRAGKPVTRASLENVHPPIAPPPTDIPDRFIMPPDKHHMSHIPPKQHIMMPPPPLQHVPHEHYNQPHEDIRAPPAELSMAPPPPRSVSQETFRISTRKHSNLITVPIQDDSSSGAREPPPPAPAPAHHHPEYQGQPVVSHPHHIMPPQQHYAPPPPPPPPISHPMPHPPQAAGTPHLVYSQAPPPPMTSAPPPITPPPGHIIAQMPPYMNHPPPGPPPPQHGGPPVTAPPPHHYNPNSLPQFTEDQGTLSPPFTQPGGMSPGIWPAPRGPPPPPRMQGPPSQTPLPGPHHPDQTRYRPYYQ

molecular target: T1, emGFP-PreScission-RBM15; experiment: affinity purification with mass spectrometry; emGFP-PreScission-RBM15 captured on GFP-nanobody Dynabeads from benzonase-treated mESC nuclear extract (Dox 24 hr), 4 hrs at 4°C, IP buffer with 350mM NaCl, 20mM Hepes pH7.9, 0.2% Tween20; eluted by PreScission Protease; LC-MS/MS; control-IP from cells without Dox; two replicates, more than eight-fold enriched

**Q.** With SPEN (from UniProt Q62504 1-3644) as the molecule, how does the binding read?
**A.** binds

**Q.** ZC3H13 (from UniProt E9Q784 1-1729) was tested. Which binding did it give?
**A.** binds

**Q.** How did the binding turn out when WDR82 (from UniProt Q8BFQ4 1-313) was run?
**A.** binds

**Q.** For KIAA1429 (from UniProt A2AIV2 1-1811), which binding is on record?
**A.** binds

**Q.** RBBP6 (from UniProt P97868 1-1790) was tested. Which binding did it give?
**A.** binds

**Q.** With B1 as the molecule, how does the binding read?
**A.** binds

**Q.** B2 was tested. Which binding did it give?
**A.** binds
